Data taken from patent EP4475229A1, “QUINONE-TYPE MOLECULES FOR ZINC-ION AQUEOUS BATTERIES” (Centre National de la Recherche Scientifique, priority 2023, dated 2024).

How the values were obtained:
[1] = vs. the maximum observed capacity, cited from earlier work
[2] = Cycling tests of quinone electrodes (cyclic voltammetry, galvanostatic cycling), capacity and capacity loss
[3] = galvanostatic cycling 0.1 A/g, R close to 1.2 mg/ml, zinc acetate based aqueous electrolytes (30K3Li3Zn)

For `O=c1c(=O)c2cccc3c2-c2c1cccc2c(=O)c3=O` [PTO], which “Observed ΔQloss upon 100h cycling” value ([1]; 2M ZnSO4, pH 4-5, ref [4], 16.7 mg/ml) is on record?
Its value is roughly 43%.

What about the “Observed ΔQloss upon 100h cycling” value ([1]; 2.5M Li2SO4, pH 7, ref [5]) of the same molecule?
The value was roughly 85%.

What about the “Observed ΔQloss upon 100h cycling” value ([1]; 4.4M H2SO4, pH 0, ref [5]) of the same molecule?
Its value is roughly 0%.

For `NC1=C(N)C(=O)C(N)=C(N)C1=O` [TABQ], which “Observed ΔQloss upon 100h cycling” value ([1]; 1M ZnSO4, pH 4-5, ref [1]) is on record?
Its value is roughly 30%.

Which “Observed ΔQloss upon 100h cycling” value ([2]; vs. the maximum observed capacity, 1.25 M Zn(CH3COO)2, pH 4-5, 1.2 mg/ml active material/electrolyte) does the source give for `CC(C)(C)C1=CC(=O)C(C(C)(C)C)=CC1=O` [compound 1] here?
Its value is roughly 0%.

Which results are given for `CC(C)(C)c1cc(O)c(C(C)(C)C)cc1O` [compound 2]?
capacity reached over a few tens of cycles ([2]; galvanostatic cycling 0.1 A/g, R 1.2 mg/ml, 1.25 M ZnOAc): 130 mAh/g; capacity reached over a few tens of cycles ([2]; galvanostatic cycling 0.1 A/g, R 1.2 mg/ml, 30K3Li3Zn): 180 mAh/g; capacity at start of cycling ([2]; galvanostatic cycling 0.1 A/g, R 1.2 mg/ml, 30K3Li3Zn and 1.25 M ZnOAc): roughly 100 mAh/g

For `CC(C)(C)c1cc(O)ccc1O` [compound 8], which “capacity retention on cycling” value [2, 3] is on record?
Its value is “cannot prevent the loss of the initial capacity”.

Which “capacity retention on cycling” value ([2]; galvanostatic cycling 0.1 A/g, R ~ 1.2 mg/ml, 30K1Zn, 30K3Li3Zn and 30K5Zn electrolytes) does the source give for `CC(C)C1=C(Cl)C(=O)C(C(C)C)=C(Cl)C1=O` [compound 9, 2,5-Dichloro-3,6-bis(1-methylethyl)-2,5-cyclohexandiene-1,4-dione] here?
Its value is “cannot prevent the loss of initial capacity on cycling”.

Which “capacity retention on cycling” value [2, 3] does the source give for `O=C1C=CC(=O)C(c2ccccc2)=C1` [compound 13, Phenyl-1,4-benzoquinone] here?
Its value is “cannot prevent the loss of the initial capacity”.

For `Cc1ccc(C2=CC(=O)C=CC2=O)cc1` [compound 14, 2-(4-Tolyl)-1,4-benzoquinone], which “capacity retention on cycling” value [2, 3] is on record?
The value was “cannot prevent the loss of the initial capacity”.

Where two headings read alike, the source gives them in different places. Some entries repeat one wording, which the source may state once for all of them.
